According to patent US20120245123A1, “METHODS FOR IMPROVING BONE HEALTH IN INFANTS USING PREBIOTICS” (ABBOTT LABORATORIES, priority 2011, published 2012):

Test: Maternal diet supplementation of pregnant and lactating rats: offspring body weight
Type: in vivo, Sprague-Dawley rats
Conditions: mean±SEM

For `O=C([O-])[O-].[Ca+2]` [Calcium, calcium carbonate], the “body weight of pups at delivery” value (pups at delivery, p<0.05 vs Control group (8.65±0.12 g)) was 8.24 ± 0.10 g and the “body weight of pups at weaning” value (pups at weaning (25-day-old), p<0.05 vs Control group (72.2±1.3 g)) was 62.0 ± 0.9 g.
